Measured values: US10676518B1, “A4B2 nicotinic acetylcholine receptors with reduced or increased nicotine sensitivity and transgenic mouse model for the same” (University of Puerto Rico, priority 2015, dated 2020)

Tested on: α4β2 nAChRs expressed in Xenopus laevis oocytes
Assay: Efficacy of agonist A-85380 versus ACh for subunit stoichiometry determination
Assay type: cell-based, Rattus norvegicus
Settings: α4β2 mRNA 2:3 ratio
Procedure: To determine whether the α4β2 mutations α4S469Aβ2, α4S471Dβ2, α4T536Aβ2 and α4Y576Aβ2 expressed in Xenopus laevis oocytes assemble in the α4(2):β2(3) or the α4(3):β2(2) stoichiometry, we estimated the efficacy of agonist A-85380 when compared to ACh 300 μM. […] The efficacy of A-85380 in WTα4(2):β2(3) and […] was determined by comparing the macroscopic current elicited by A-85380 100 nM and ACh 300 μM in oocytes microinjected α4β2 mRNA in 1:10 and 10:1 ratios, respectively. The efficacy of A-85380 in α4S469Aβ2, α4S471Dβ2, α4T536Aβ2 and α4Y576Aβ2 was determined by comparing the macroscopic current elicited by A-85380 100 nM and ACh 300 μM in oocytes microinjected α4β2 mRNA in 2:3 ratio. The changes in stoichiometry in these four mutants were assessed by comparing the efficacy of A-85380 in each mutant compared to WTα4(2):β2(3) and WTα4(3):β2(2).

| Substance | subunit stoichiometry indicated by efficacy of A-85380 |
| --- | --- |
| α4S471Dβ2: rat α4β2 nAChR, α4 subunit point mutation S471D, PKA putative phosphorylation site | α4(2):β2(3) stoichiometry |
| α4S469Aβ2: rat α4β2 nAChR, α4 subunit point mutation S469A, CKII putative phosphorylation site | α4(2):β2(3) stoichiometry |
